Data reported in US20230057461A1 (US Dept. of Health and Human Services, published 2023).
These are yes or no findings as the source states them, for the method shown. In cells and extracts the contact can be indirect. Some entries that bind do so weakly or less than the wild type.

Chains of the proteins cited; added tags and fusions are not shown. Lines headed by an entry give the natural chain unless they say otherwise; changes in a name come on top. A line that says so, or that is headed by a name, gives the form on record, which may keep a tag or linker.
UniProt P61586: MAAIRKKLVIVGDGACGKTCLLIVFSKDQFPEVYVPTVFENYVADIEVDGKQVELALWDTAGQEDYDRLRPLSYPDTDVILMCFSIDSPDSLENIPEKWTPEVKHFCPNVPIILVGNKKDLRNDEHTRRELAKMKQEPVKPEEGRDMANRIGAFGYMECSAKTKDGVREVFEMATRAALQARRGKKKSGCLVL
nucleotide-free RhoA mutant that exhibits high affinity for GEFs (P61586, form named): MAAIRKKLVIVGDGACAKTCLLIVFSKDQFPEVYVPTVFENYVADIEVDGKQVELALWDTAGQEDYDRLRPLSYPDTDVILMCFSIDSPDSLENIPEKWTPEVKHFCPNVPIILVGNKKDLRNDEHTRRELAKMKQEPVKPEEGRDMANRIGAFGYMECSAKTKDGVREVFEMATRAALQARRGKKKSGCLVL

Biological target: nucleotide-free RhoA mutant that exhibits high affinity for GEFs (UniProt P61586)
Test: pull-down of active NET1 from lysates of PMO-treated MDA-MB-231 cells

B1: NET1 protein (endogenous, MDA-MB-231 cells) (enzyme, human, UniProt Q7Z628 1-596, looked up)
chain: MEPELAAQKQPRPRRRSRRASGLSTEGATGPSADTSGSELDGRCSLRRGSSFTFLTPGPNWDFTLKRKRREKDDDVVSLSSLDLKEPSNKRVRPLARVTSLANLISPVRNGAVRRFGQTIQSFTLRGDHRSPASAQKFSSRSTVPTPAKRRSSALWSEMLDITMKESLTTREIRRQEAIYEMSRGEQDLIEDLKLARKAYHDPMLKLSIMSEEELTHIFGDLDSYIPLHEDLLTRIGEATKPDGTVEQIGHILVSWLPRLNAYRGYCSNQLAAKALLDQKKQDPRVQDFLQRCLESPFSRKLDLWSFLDIPRSRLVKYPLLLKEILKHTPKEHPDVQLLEDAILIIQGVLSDINLKKGESECQYYIDKLEYLDEKQRDPRIEASKVLLCHGELRSKSGHKLYIFLFQDILVLTRPVTRNERHSYQVYRQPIPVQELVLEDLQDGDVRMGGSFRGAFSNSEKAKNIFRIRFHDPSPAQSHTLQANDVFHKQQWFNCIRAAIAPFQSAGSPPELQGLPELHEECEGNHPSARKLTAQRRASTVSSVTQVEVDENAYRCGSGMQMAEDSKSLKTHQTQPGIRRARDKALSGGKRKETLV
  binding: binds
